Experimental data as given in publication PMC5889877, “Ex Vivo Cardiotoxicity of Antineoplastic Casiopeinas Is Mediated through Energetic Dysfunction and Triggered Mitochondrial-Dependent Apoptosis” (Oxidative Medicine and Cellular Longevity, 2018).

Assays:
isolated rat hearts = test: Langendorff-perfused isolated rat heart: mechanical performance (RPP, HR, ±dP/dt, cardiac efficiency)
Protocol: Male Wistar rats (250–300 g) were injected with heparin (10^3 U·kg^−1, i.p.) 20 minutes prior to anesthesia with pentobarbital (100 mg·kg^−1, i.p.). When bilateral corneal reflex was absent, the heart was excised through an abdominal approach. Then, the ascending aorta was visualized and cut and the heart was placed in a cardioplegic solution. To avoid ischemia, the time between cutting the diaphragm to placing the heart in the solution was less than 60 seconds. The hearts were mounted in accordance with the Langendorff model and perfused at a constant flow (12 ml·min^−1) with a Krebs-Henseleit buffer as previously described. A latex balloon connected to a pressure transducer filled with saline solution was inserted into the left ventricle after establishing autonomous contraction. The pulmonary artery was cannulated and connected to a closed chamber using a Clark-type oxygen electrode (Yellow Springs Instruments, Yellow Springs, Ohio) to measure myocardial oxygen consumption (MVO2) in the coronary effluent. The rate of MVO2 was calculated as the difference between the concentration in the K-H buffer before (100%) and after perfusion. Data Trax software (WPI, Sarasota, Florida) was used for continuous recording of the heart rate (HR), left ventricular pressure (LVP), MVO2, and maximum positive and negative derivative of left ventricular pressure (±dP/dt). The baseline was established during 10–15 minutes of K-H perfusion. Each concentration of Cas or Doxo remained in the heart for 30 min. Hearts in the control group were perfused with K-H buffer during the whole experimental time. Rate pressure product (RPP = HR × LVP) and cardiac efficiency ([…]) were calculated as previously reported.

[1] = test system: adult rat ventricular myocytes; test: Cardiomyocyte viability, Alamar Blue; assay type: cell-based; conditions: LD50 comparison
From the text: Ventricular cardiomyocytes were obtained from male Wistar rats (250–300 g) by digestion with collagenase type II as previously described. Cells were washed in Tyrode solution (mM): 130 NaCl, 5.4 KCl, 0.4 NaH2PO4, 0.5 MgCl2, 25 HEPES, and 5 glucose with pH 7.4. After isolation, cells were cultivated at a density of 3.2 × 10^3 viable cells/well in 96-well plates pretreated with laminin in M-199 medium supplemented in mM with 5 taurine, 5 creatine, 2 L-carnitine, 2.5 sodium pyruvate, and penicillin-streptomycin at 100 U·ml^−1 and 100 μg·ml^−1, respectively, at 37°C, with 5% CO2 and 95% air. After incubation for three hours, varying concentrations of Cas were tested in triplicate, exposing the myocytes during 24 hours to each treatment. At the end of the incubation period, the cytotoxicity of Cas was measured using the Alamar Blue viability test (Life Technologies, Carlsbad, CA, USA). Release of cytoplasmic lactate dehydrogenase (LDH) was determined using CytoTox-ONE homogeneous membrane integrity kit (Promega Madison, WI, USA). The activity of caspases 3/7 and caspase 9 was measured in cell lysates using caspase-Glo 3/7 and caspase-Glo 9 test luminescent assay (Promega, Madison, WI, USA), respectively. The cardiomyoblast cell line H9c2 (ATCC CRL-1446) was maintained using standard procedures in DMEM supplemented with 10% fetal bovine serum prior to the oxidative stress experiments.

Structure (SMILES) | more potent inhibitor of cardiac contractility compared to III-ia (isolated rat hearts; IC50 comparison) [fold] | higher toxicity compared to III-ia [1] [fold] | more potent effect on RPP than Doxo (isolated rat hearts; IC50 comparison) [fold] | inhibitory effect on RPP slower than that of III-Ea (isolated rat hearts; 5 μM, time-dependent) [fold]
Cc1ccnc2c1ccc1c(C)ccnc12.NCC(=O)[O-].O.O.O=[N+]([O-])[O-].[Cu+2] [Cas II-gly, Aqua(4,7-dimethyl-1,10-phenanthroline)(glycinate)copper(II)nitrate] | 2 | 3 | – | –
CC(=O)C=C(C)[O-].Cc1ccnc2c1ccc1c(C)ccnc12.O.O.O=[N+]([O-])[O-].[Cu+2] [Cas III-Ea, Aqua(4,7-dimethyl-1,10-phenanthroline)(acetylacetonate)copper(II)nitrate] | 7 | 3 | 3.8 | –
CC(=O)C=C(C)[O-].Cc1ccnc(-c2cc(C)ccn2)c1.O.O.O=[N+]([O-])[O-].[Cu+2] [Cas III-ia, Aqua(4,4-dimethyl-2,2′bipyridine)(acetylacetonate)copper(II)nitrate] | – | – | – | 2.3
